{"source": "PubChem BioAssay AID2685", "about": "(National Center for Advancing Translational Sciences (NCATS), 2010)", "experiment": "qHTS Assay for Lipid Storage Modulators in Drosophila S3 Cells;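 on cell number change: cells counted by Cell Tracker Red CMTPX staining in the red channel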", "conditions": "BODIPY lipid droplet fluorescence, 18-24 h; for cell number change: measured here: cell count max response, cells fed with added oleic acid", "procedure,_shortened": "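Drosophila S3 cells got compounds at several concentrations plus oleic acid (400 uM solution). Laser-scanning cytometry with 488 nm excitation read lipid droplets at 500-530 nm and cells at 575-640 nm. Percent activity was relative to 20 uM Triacsin C.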", "key": {"[1]": {"conditions": "measured here: lipid fluorescence (Fed channel) AC50, cells fed with added oleic acid"}, "[2]": {"conditions": "measured here: cell number channel AC50, cells fed with added oleic acid"}}, "note": "This is one part of the list. Further columns of the screen follow, without active or inactive calls. Compounds called inactive in the main read-out are mostly missing here. The note in brackets gives the kind of curve behind each potency; many fits are weak."}
{"compound": "Cc1ccc(OCC(=O)NCCCNC(=O)c2ccco2)cc1C", "values": [{"measurement": "cell number change", "result": 10, "unit": "%"}, {"measurement": "AC50", "setting": "[1]", "result": "651 nM [falling, full curve, poor fit]"}]}
{"compound": "CC1=C(C#N)C(=O)N(C2CCS(=O)(=O)C2)C(=O)/C1=C\\c1ccco1", "note": "(stereo not drawn)", "values": [{"measurement": "cell number change", "result": -4.76, "unit": "%"}]}
{"compound": "O=C(O)C1(c2ccccc2)CCN(S(=O)(=O)c2ccc(Cl)cc2)CC1", "values": [{"measurement": "cell number change", "result": -21.9, "unit": "%"}, {"measurement": "AC50", "setting": "[1]", "result": "6510 nM [falling, partial curve, poor fit]"}]}
{"compound": "CCCCn1c(CN(C)Cc2ccccc2)nc2c1c(=O)n(C)c(=O)n2C", "values": [{"measurement": "cell number change", "result": -66.2, "unit": "%"}, {"measurement": "AC50", "setting": "[2]", "result": "29100 nM [falling, single point]"}, {"measurement": "AC50", "setting": "[1]", "result": "29100 nM [falling, single point]"}]}
{"compound": "COc1cccc(NC(=O)CCNC(=O)Cn2ccc3ccccc3c2=O)c1", "values": [{"measurement": "AC50", "setting": "[2]", "result": "2060 nM [falling, single point]"}, {"measurement": "AC50", "setting": "[1]", "result": "1840 nM [falling, partial curve]"}]}
{"compound": "Cc1ccc(-c2csc(N(CC3CCCO3)C(=O)c3ccco3)n2)cc1", "note": "(stereo not drawn)", "values": [{"measurement": "cell number change", "result": 9.55, "unit": "%"}, {"measurement": "AC50", "setting": "[1]", "result": "2060 nM [rising, partial curve]"}]}
{"compound": "O=C(Nc1cccc(S(=O)(=O)N2CCOCC2)c1)c1c2c(nc3ccccc13)CCC2", "values": [{"measurement": "cell number change", "result": 1.55, "unit": "%"}, {"measurement": "AC50", "setting": "[1]", "result": "29100 nM [rising, single point]"}]}
{"compound": "c1ccc(COc2ccc(OCCN3CCCCC3)cc2)cc1", "values": [{"measurement": "cell number change", "result": 66.7, "unit": "%"}, {"measurement": "AC50", "setting": "[2]", "result": "2590 nM [falling, single point]"}]}
{"compound": "CCN(CC)S(=O)(=O)c1cccc(-c2cn3cc(C)ccc3n2)c1", "values": [{"measurement": "cell number change", "result": 37.7, "unit": "%"}, {"measurement": "AC50", "setting": "[2]", "result": "4610 nM [rising, full curve]"}]}
{"compound": "C=CCNC(=O)C(=O)Nc1ccc2c(c1)N(S(=O)(=O)c1cccs1)CCC2", "values": [{"measurement": "cell number change", "result": 55.9, "unit": "%"}, {"measurement": "AC50", "setting": "[2]", "result": "3660 nM [rising, full curve]"}]}
{"compound": "CCOC(=O)C1CCN(C(=O)CN2C(=O)C(C(C)C)Oc3ccccc32)CC1", "note": "(stereo not drawn)", "values": [{"measurement": "cell number change", "result": 3.91, "unit": "%"}]}
{"compound": "O=C(NCc1cccnc1)c1cccc(S(=O)(=O)Nc2ccc(F)cc2)c1", "values": [{"measurement": "cell number change", "result": 58.5, "unit": "%"}, {"measurement": "AC50", "setting": "[2]", "result": "2590 nM [rising, full curve]"}]}
{"compound": "COc1ccc(C(=O)Nc2ccnn2C2CCN(C(=O)C3CCOC3)CC2)cc1", "note": "(stereo not drawn)", "values": [{"measurement": "cell number change", "result": -21.3, "unit": "%"}, {"measurement": "AC50", "setting": "[2]", "result": "920 nM [falling, full curve, poor fit]"}, {"measurement": "AC50", "setting": "[1]", "result": "164 nM [falling, full curve]"}]}
{"compound": "CC(=O)Nc1sc2c(c1C(c1ccccn1)N1CCN(C)CC1)CCCC2", "note": "(stereo not drawn)", "values": [{"measurement": "cell number change", "result": 0.113, "unit": "%"}]}
{"compound": "COc1ccc(S(=O)(=O)NCCCn2ccnc2)cc1C(C)(C)C", "values": [{"measurement": "cell number change", "result": 15, "unit": "%"}, {"measurement": "AC50", "setting": "[1]", "result": "29100 nM [falling, single point]"}]}
{"compound": "Cn1nnc(NC(=O)c2ccccc2F)n1", "values": [{"measurement": "cell number change", "result": -4.79, "unit": "%"}, {"measurement": "AC50", "setting": "[1]", "result": "32600 nM [falling, single point]"}]}
{"compound": "CSc1ncccc1C(=O)OCn1nnc2ccccc2c1=O", "values": [{"measurement": "cell number change", "result": 8.51, "unit": "%"}, {"measurement": "AC50", "setting": "[2]", "result": "651 nM [rising, single point]"}]}
